Experimental data reported in patent publication US20250059285A1.
No constants are given. Whether binding was seen depends on the method and setting. Some results given as binding are weak or reduced against the parent protein; the word gives no strength. Tags and fused reporters may be left off the sequences shown.

Target: T1, human Gal10-His (human) (UniProt Q05315)
T1 sequence: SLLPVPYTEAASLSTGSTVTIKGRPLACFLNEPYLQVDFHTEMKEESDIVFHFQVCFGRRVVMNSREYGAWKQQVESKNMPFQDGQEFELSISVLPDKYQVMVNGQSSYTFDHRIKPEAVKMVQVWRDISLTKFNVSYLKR
Test: SPR (Biacore 3000): % relative activity of stressed Fab samples against a titration curve of the T0 reference (-80°C). Binding is to Gal10.

binding: binds
B1: g7B07_N53A (human Fab) (Fab, V domains shown)
VH: EVQLLESGGGLVQPGGSLRLSCAASGFTFRSYDMSWVRQAPGKGLEWVSAIKAGGGITYYADSVKGRFTISRDNSKNTLYLQMNSLRAEDTAVYYCATTHGIGTLGFGSWGQGTLVTVSS
VL: SYELTQPLSVSVALGQTARITCDGNNIGSKSAQWYQQKPGQAPVLVIYADEYRPEGIPERFSGSNSGNTATLTISRAQAGDEADYYCQVWDGSAAVFGGGTQLTVL
